This assay is described as follows: qHTS Assay for Lipid Storage Modulators in Drosophila S3 Cells.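 On cell number change: cells counted by Cell Tracker Red CMTPX staining in the red channel.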 The settings on record: BODIPY lipid droplet fluorescence, 18-24 h; for cell number change: measured here: cell count max response, cells fed with added oleic acid. The method, boiled down: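 Drosophila S3 cells loaded with oleic acid (400 uM, as added) and compounds at several concentrations; lipid droplets imaged by 488-nm laser-scanning cytometry, 500–530 nm intensity and object ratio to cell channel. Percent activity normalized to 20 uM Triacsin C.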
(In general: qHTS replaces the single test concentration by a dilution series.)

Setting [1] is: measured here: cell number channel AC50, cells fed with added oleic acid.
Setting [2] is: measured here: lipid fluorescence (Fed channel) AC50, cells fed with added oleic acid.

Some of the results follow. Shown are side measurements of this screen, not its main read-out; they come without a call. Compounds called inactive in the main read-out are mostly missing here. Words in brackets tell the shape of the fitted curve; partial curves, single points and poor fits give uncertain potencies.

For orientation: AC50 means the concentration giving half of the maximal activity seen. A low value points to greater potency. On to `CC(NC(=O)/C(=C/c1ccc2c(c1)OCO2)NC(=O)c1cccc([N+](=O)[O-])c1)C(=O)O` (centres undefined), for which the cell number change turned out to be 11.4%. Under setting [1], the AC50 is 0.651 µM [rising, full curve, poor fit]. Under setting [2], the AC50 was 0.58 µM [rising, partial curve, poor fit].
As to `CNC(=O)Nc1ccccc1C(=O)NCc1ccccc1`, the cell number change stood at 53.7%. The AC50 under setting [1] is 29.1 µM [rising, single point]. The AC50 under setting [2] is 6.51 µM [falling, single point].
As to `CCOc1ccc(OCc2ccc(C(=O)OCc3ccccn3)o2)cc1`, the cell number change is 1.4%. The AC50 under setting [2] was 1.16 µM [rising, full curve, poor fit].
In the case of `Cc1ccccc1/C=C/c1cccc[n+]1C`, the cell number change is -0.351%. In addition, the AC50 under setting [1] is 0.651 µM [rising, single point]. The AC50 under setting [2] is 6.51 µM [rising, single point].
As for `COc1ccc(CCC(=O)N2CCN(S(=O)(=O)c3cccs3)CC2)cc1`, the cell number change came to 14.1%.
On to `CCOc1ccc(C(=O)Nc2ccc3c(c2)OCCO3)cc1OC`, for which the cell number change is -7.94%. In addition, under setting [2], the AC50 was 1.84 µM [rising, partial curve].
With `CN(Cc1ccccc1)C(=O)Nc1ccccc1`, the cell number change is -11.8%. Further, the AC50 under setting [2] is 3.26 µM [rising, single point].
For `COc1ccc(-n2nccc2-c2nn(-c3cccc(OC)c3)c(=O)n(C)c2=O)cc1`, under setting [1], the half-maximal activity concentration (AC50) is 5.17 µM [rising, single point].
In the case of `NS(=O)(=O)c1ccc(NC(=O)c2ccc3nccnc3c2)cc1`, the cell number change is -18.6%. In addition, the AC50 under setting [1] was 0.00461 µM [falling, full curve, poor fit]. Also, the AC50 under setting [2] was 18.4 µM [falling, single point].
Turning to `CC(C)c1ccc(/C=N/NC(=O)c2nnn(-c3nonc3N)c2CN(C)C2CCCCC2)cc1`, the cell number change worked out at 19.5%.
With `CCN1C(=NCCc2cccs2)N[C@@H](c2cccs2)C(C(=O)OC)=C1C`, the cell number change came to 1.94%. Also, under setting [2], the AC50 is 5.17 µM [falling, single point].
`O=C(COc1ccc(Cl)cc1)NCc1nnc(SCC(=O)N2CCCC2)o1`: the AC50 reads like this: under setting [1], 6.51 µM [rising, single point]; under setting [2], 4.61 µM [rising, full curve].
For the molecule `CC1CC(C)CN(S(=O)(=O)c2ccc(NC(=O)[C@@H]3CCCN3C(=O)c3cccs3)cc2)C1` (some centres undefined), the cell number change is -21.1%. Under setting [2], the AC50 was 2.31 µM [rising, partial curve, poor fit].
Consider `C=Cn1cc[n+](CC(=O)c2cc(C(C)(C)C)c(O)c(C(C)(C)C)c2)c1`, for which the cell number change was -0.351%.
For the molecule `CCCN(CC(=O)Nc1ccccc1C)C(=O)Cc1c(C)nc2ccccc2c1C`, the cell number change stood at 3.65%. For the same molecule, the AC50 under setting [1] is 2.31 µM [rising, partial curve]. The concentration at half-maximal activity (AC50) under setting [2] is 0.82 µM [rising, full curve, poor fit].
Take `CN(C)S(=O)(=O)c1ccc(S(=O)(=O)N2CCCC(C(=O)NC3CC3)C2)cc1` (centres undefined): the cell number change came to 4.78%.
Turning to `COC(=O)C[n+]1cccc2ccccc21`, the cell number change is 7.44%. The AC50 under setting [1] is 0.13 µM [falling, full curve, poor fit]. For the same molecule, the concentration at half-maximal activity (AC50) under setting [2] was 0.13 µM [falling, full curve, poor fit].
As for `Cc1c2cnn(-c3ccccc3)c(=O)c2c(C)n1CCCC(=O)N1CCN(c2ncccn2)CC1`, the cell number change is -1.49%.
As for `Cc1onc(-c2ccccc2)c1C(=O)OCC(=O)Nc1ccc(C#N)cc1`, the cell number change was -2.06%.
Consider `Cc1c(NC(=O)COC(=O)C2(c3ccccc3F)CCCC2)c(=O)n(-c2ccccc2)n1C`, for which the cell number change is -26.9%. Also, the AC50 under setting [1] is 0.013 µM [falling, full curve, poor fit].
Regarding `COC(=O)CCCC(=O)N1CCCC(CCC(=O)NCc2ccc(F)c(F)c2)C1` (centres undefined), the cell number change was -10.7%. For the same molecule, under setting [2], the AC50 is 29.1 µM [falling, single point].
Regarding `CCC(=O)Nc1nc2cc(OC)ccc2s1`, the cell number change turned out to be 9.34%.
Take `COCCOC(=O)C1=C(C)NC2=C(C(=O)CC(c3cccs3)C2)C1c1ccsc1` (centres undefined): the cell number change turned out to be 3.9%. In addition, under setting [2], the AC50 is 0.116 µM [falling, partial curve, poor fit].
As to `Cc1ccc(-c2[nH]c(-c3ccccc3)nc2SCC(=O)NCC2CCCO2)cc1` (centres undefined), the cell number change was -7.32%.
Take `Cn1c(C(=O)Nc2ccc3c(c2)OCCO3)cc2c(=O)n(C)c3ccccc3c21`: the AC50 reads like this: under setting [1], 2.06 µM [rising, partial curve]; under setting [2], 1.84 µM [rising, partial curve].
Regarding `O=C(Nc1nccs1)c1ncc(Cl)c(Cl)c1Cl`, the cell number change is -3.85%.
Regarding `O=S(=O)(NCCSc1nnc(-c2ccco2)n1-c1ccccc1)c1ccccc1`, the cell number change turned out to be 4.06%. The AC50 under setting [2] is 29.1 µM [rising, single point].
In the case of `COc1ccc(CNC(=O)C2CCCN(c3nn4c(=O)cc(C)nc4s3)C2)cc1` (centres undefined), the cell number change was -11.6%. Also, the AC50 under setting [2] is 29.1 µM [rising, single point].
As for `Cc1nc(N)[nH]c(=O)c1Oc1cccc(C(F)(F)F)c1`, the cell number change is -50.9%. Further, the AC50 under setting [1] was 29.1 µM [falling, single point]. Further, the AC50 under setting [2] was 32.6 µM [falling, single point].
In the case of `CC1(C)CC2CC(C)(CN2S(=O)(=O)c2ccc(C(=O)Nc3cccc(S(=O)(=O)N4CCOCC4)c3)cc2)C1` (centres undefined), the cell number change is -26.1%. Besides, under setting [1], the AC50 was 2.91 µM [falling, full curve, poor fit]. Besides, the AC50 under setting [2] was 6.51 µM [falling, partial curve, poor fit].
Consider `O=C(CCNS(=O)(=O)c1ccc(OC(F)(F)F)cc1)N1CCN(S(=O)(=O)c2cccc(F)c2)CC1`, for which the cell number change turned out to be 10.7%. Also, the AC50 under setting [1] was 0.461 µM [falling, single point]. The AC50 under setting [2] is 0.366 µM [falling, partial curve, poor fit].
As to `Cn1c(Oc2ccccc2NCc2cc(Br)ccc2O)cc(=O)n(C)c1=O`, the AC50 under setting [2] is 0.731 µM [falling, full curve, poor fit].
As to `O=C(Oc1ccc[nH]c1=O)c1cccc(Cl)c1`, the cell number change stood at 61.3%. In addition, the AC50 under setting [1] was 3.26 µM [rising, partial curve, poor fit]. In addition, under setting [2], the AC50 was 2.91 µM [falling, full curve].
Turning to `O=C(OCC(=O)N1CCCC1)c1ccc(OC(F)(F)F)cc1`, the AC50 by setting is: under setting [1], 0.116 µM [falling, partial curve, poor fit]; under setting [2], 1.84 µM [falling, partial curve, poor fit].
For `CCOC(=O)C1(C)NC(c2ccccc2F)C2C(=O)N(c3cccc(C(C)=O)c3)C(=O)C21` (centres undefined), the cell number change was 2.72%.
Regarding `C#CCNC(=O)C1=C[C@H](c2ccc(C(F)(F)F)cc2)C[C@H](OCCCCO)O1`, the cell number change was -5.27%. Moreover, the AC50 under setting [2] is 1.84 µM [rising, partial curve].
As for `Cc1ccc(CS(=O)(=O)c2ncc(Cl)c(C(=O)Nc3nnc(C)s3)n2)cc1`, the cell number change was -7.92%. The AC50 under setting [1] was 5.17 µM [falling, single point]. Besides, under setting [2], the AC50 is 2.31 µM [falling, full curve].
As to `O=C(CSc1nccn1-c1ccccc1)NCc1ccc(F)cc1`, the cell number change worked out at 9.03%. Under setting [1], the AC50 is 5.8 µM [rising, single point].
For `O=C(CSc1nn(-c2ccc(Cl)cc2)c(=S)s1)N1CCN(C(=O)c2ccco2)CC1`, the cell number change was -27.2%.
As for `CCCN1CCN(C(=O)c2oc3ccccc3c2NC(=O)COc2ccc(OC)cc2)CC1`, the cell number change was 13.4%. In addition, under setting [2], the AC50 was 16.4 µM [rising, partial curve].
As for `COc1ccc(-c2nc(C(=O)NCCCN3CCOCC3)cc3c2[nH]c2ccccc23)cc1OC`, the cell number change is -37.9%. In addition, the AC50 under setting [1] is 10.3 µM [falling, partial curve, poor fit]. Further, under setting [2], the AC50 is 2.06 µM [falling, partial curve].
For the molecule `Cc1cc(CCN2CCC(=O)NC2=O)ccc1OC(C)C`, the cell number change turned out to be 8.27%. The AC50 under setting [2] was 4.11 µM [falling, single point].
With `C=CCNC(=S)Nc1ccc(Cl)cc1`, the cell number change came to 14.7%. Moreover, under setting [2], the AC50 is 0.651 µM [falling, full curve, poor fit].
Consider `COc1cc(CC(=O)NCCCc2ccccc2)cc(OC)c1OC`, for which the cell number change stood at 12.1%. In addition, the AC50 under setting [2] was 2.31 µM [rising, partial curve].
On to `COc1ccc(OC)c(NC2=C(Cl)C(=O)N(Cc3ccccc3)C2=O)c1`, for which the cell number change was -55.9%. Under setting [1], the AC50 was 0.82 µM [falling, partial curve]. Under setting [2], the AC50 was 29.1 µM [falling, single point].
With `C=CCc1cccc2cc(C(=O)N(CC)CC)c(=O)oc12`, the cell number change was -19.3%. Also, the AC50 under setting [1] was 0.326 µM [rising, full curve]. Also, the AC50 under setting [2] is 6.51 µM [rising, partial curve, poor fit].
`O=C(CNS(=O)(=O)c1cccc2nsnc12)NC1CCCCC1`: the cell number change worked out at 7.37%.
As to `O=C(NCC1COc2ccccc2O1)c1cc(S(=O)(=O)N2CCOCC2)c(Cl)cc1Cl` (centres undefined), the cell number change came out at 98.5%. The AC50 under setting [1] is 16.4 µM [rising, partial curve].
Take `Cc1nc(C)c(-c2ccc(SCc3ccc(Cl)cc3)nn2)s1`: the cell number change is 6.27%. Also, under setting [2], the AC50 is 6.51 µM [rising, single point].
With `CC(=O)Nc1sc(NC(=O)c2ccccc2)nc1-c1cccs1`, the cell number change is -0.272%.
Turning to `O=C(NCCSC1CCCCC1)c1ccccc1`, the cell number change came to 108%. The AC50 under setting [1] is 14.6 µM [rising, partial curve].
On to `O=c1c2cn[nH]c2[nH]c(=S)n1-c1ccccc1F`, for which the cell number change was -51.5%. Besides, the AC50 under setting [1] is 20.6 µM [falling, single point]. In addition, the AC50 under setting [2] is 20.6 µM [falling, single point].
As to `CCOc1ccccc1C(=O)NCC(=O)OCC(=O)NCCc1ccc(S(N)(=O)=O)cc1`, the cell number change is -33.1%. Further, the AC50 under setting [1] is 20.6 µM [falling, partial curve].
With `O=[N+]([O-])c1cccc(C(=S)N2CCN(c3ccc(F)cc3)CC2)c1`, the cell number change is -1.22%. In addition, the AC50 under setting [1] was 0.731 µM [rising, partial curve].
As to `COc1ccc(CNC(=O)c2cc3c(=O)n4ccccc4nc3n(Cc3cccnc3)c2=N)cc1`, the cell number change amounted to 7.16%. In addition, under setting [2], the AC50 was 0.103 µM [rising, full curve, poor fit].
For `CCNC(=O)c1ccccc1NC(=O)C1CC(=O)N(C(C)C)C1` (centres undefined), the cell number change was -21%. In addition, under setting [2], the AC50 was 20.6 µM [rising, partial curve].
Consider `CSc1ccc(Cl)c(C(=O)N(C)CC(=O)Nc2ccc(N3CCOCC3)cc2)c1`, for which the cell number change turned out to be 42.5%. For the same molecule, under setting [1], the AC50 was 20.6 µM [rising, single point].
